Results as given in PMC11384121.

Protein sequences, listed by entry. Tags and fused reporters are not part of them.
UniProt A0ABM1G300, entry or part of it: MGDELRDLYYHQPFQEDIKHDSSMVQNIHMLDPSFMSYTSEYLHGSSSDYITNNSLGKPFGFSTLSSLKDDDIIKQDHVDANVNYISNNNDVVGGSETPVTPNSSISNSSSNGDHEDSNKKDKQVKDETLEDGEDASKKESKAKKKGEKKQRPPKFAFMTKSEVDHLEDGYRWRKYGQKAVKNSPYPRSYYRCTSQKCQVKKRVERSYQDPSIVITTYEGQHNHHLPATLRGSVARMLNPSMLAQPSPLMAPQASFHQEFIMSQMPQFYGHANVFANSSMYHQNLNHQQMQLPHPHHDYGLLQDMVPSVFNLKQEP
UniProt P08515, whole entry: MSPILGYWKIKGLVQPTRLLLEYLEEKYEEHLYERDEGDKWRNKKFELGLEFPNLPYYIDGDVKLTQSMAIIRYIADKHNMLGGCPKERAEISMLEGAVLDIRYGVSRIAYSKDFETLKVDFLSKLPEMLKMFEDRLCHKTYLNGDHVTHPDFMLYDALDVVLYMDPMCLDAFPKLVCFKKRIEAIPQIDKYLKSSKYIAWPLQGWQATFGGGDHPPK

Assays:
[1] = biological target: WRKY-B-GST (Solanum lycopersicum) (UniProt A0ABM1G300); experiment: EMSA; conditions: Beyotime Chemiluminescent EMSA Kit, manufacturer's instructions, pH and temperature not stated, recombinant protein, protein details: GST (pGEX4T), label: biotin
GST = GST (UniProt P08515); experiment: EMSA; conditions: GST alone; Beyotime Chemiluminescent EMSA Kit, manufacturer's instructions; pH and temperature not stated; recombinant protein; label: biotin

Sequence	binding result [1]	binding result (GST)	binding result ([1]; inhibited by competitor probe)
AAGTAAGTTAAAAATAGGTCTGTCCTTTTGACTTTGTAATTATAAATATA (double strand) [Probe-BL]	binds		
GTTCTGACCGAAAGTTAAAATGAAAAGTCTAAATTACTATTTATAATATC (double strand) [Probe-PIN4]		no binding	binds
AAGTAAGTTAAAAATAGGTCTGTCCAAAACTGAAAGTAATTATAAATATA (double strand) [mProbe-BL]	no binding		

Construct, isoform or probe ends are uncertain for at least one entry. Negatives hold for the conditions tested.
